According to patent US8299301B2 (priority 2007, dated 2012):
Some results were stated once for a whole list of compounds, not compound by compound.

Tests used:
Alternaria solani = test: Alternaria test (tomato) / protective; assay type: in vivo; conditions: active compound concentration 100 ppm, evaluation 3 days after inoculation
Uromyces appendiculatus = test: Uromyces test (bean) / protective; assay type: in vivo; conditions: active compound concentration 100 ppm, evaluation 10 days after inoculation

| Compound | efficacy (Alternaria solani) [%] | efficacy (Uromyces appendiculatus) [%] |
| --- | --- | --- |
| CCN(C)C=Nc1cc(C(F)(F)F)c(Oc2ccc(Cl)c(C(F)(F)F)c2)cc1C [Compound 5, N-ethyl-N-methyl-N′-[4-(3-trifluoromethyl-4-chlorophenoxy)-5-trifluoromethyl-2-methylphenyl]formamidine] | ≥ 70 | ≥ 70 |
| CCN(C)C=Nc1cc(C(F)F)c(Oc2ccc(Cl)c(C(C)(C)C)c2)cc1C [Compound 9, N-ethyl-N-methyl-N′-[4-(3-tert-butyl-4-chlorophenoxy)-5-difluoromethyl-2-methylphenyl]formamidine] | ≥ 70 | ≥ 70 |
| CCN(C)C=Nc1cc(C(F)(F)F)c(Oc2ccc(Cl)c(C(C)(C)C)c2)cc1C [Compound 3, N-ethyl-N-methyl-N′-[4-(3-tert-butyl-4-chlorophenoxy)-5-trifluoromethyl-2-methylphenyl]formamidine] | ≥ 70 | ≥ 70 |
